Test results: publication PMC8133776
These are yes or no findings as the source states them, for the method shown. In cells and extracts the contact can be indirect. These calls come from enrichment with a bait or labelling near it, and not all partners need be listed.

The chains behind the UniProt entries cited, without tags or fusion partners.
UniProt Q9U1H9: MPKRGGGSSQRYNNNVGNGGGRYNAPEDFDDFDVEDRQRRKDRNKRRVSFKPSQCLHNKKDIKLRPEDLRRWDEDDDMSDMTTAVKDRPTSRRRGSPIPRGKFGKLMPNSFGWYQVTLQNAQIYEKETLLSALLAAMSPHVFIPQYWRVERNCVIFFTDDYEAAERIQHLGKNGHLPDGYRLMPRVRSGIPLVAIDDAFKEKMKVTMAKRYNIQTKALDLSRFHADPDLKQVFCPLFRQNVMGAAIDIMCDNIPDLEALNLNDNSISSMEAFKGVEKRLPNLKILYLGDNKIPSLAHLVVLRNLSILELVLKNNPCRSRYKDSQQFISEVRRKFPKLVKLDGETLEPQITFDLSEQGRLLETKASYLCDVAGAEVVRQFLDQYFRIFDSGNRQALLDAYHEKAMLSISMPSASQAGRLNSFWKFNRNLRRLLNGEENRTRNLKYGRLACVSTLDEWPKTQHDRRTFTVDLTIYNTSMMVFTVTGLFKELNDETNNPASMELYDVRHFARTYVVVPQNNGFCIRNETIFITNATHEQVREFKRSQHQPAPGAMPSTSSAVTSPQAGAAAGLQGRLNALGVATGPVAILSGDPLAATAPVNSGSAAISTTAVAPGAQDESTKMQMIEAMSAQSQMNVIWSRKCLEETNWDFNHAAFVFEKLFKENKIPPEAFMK

Legend:
[1] = biological target: T1, BASU-Nup54 (Drosophila melanogaster) (UniProt Q9V6B9); assay: proximity labelling; HA-BASU fusion expressed in OSCs, 200 uM biotin for 1 hr, streptavidin pulldown of biotinylated proteins, TMT quantitative mass spectrometry against HA-ZsGreen control
T1 sequence: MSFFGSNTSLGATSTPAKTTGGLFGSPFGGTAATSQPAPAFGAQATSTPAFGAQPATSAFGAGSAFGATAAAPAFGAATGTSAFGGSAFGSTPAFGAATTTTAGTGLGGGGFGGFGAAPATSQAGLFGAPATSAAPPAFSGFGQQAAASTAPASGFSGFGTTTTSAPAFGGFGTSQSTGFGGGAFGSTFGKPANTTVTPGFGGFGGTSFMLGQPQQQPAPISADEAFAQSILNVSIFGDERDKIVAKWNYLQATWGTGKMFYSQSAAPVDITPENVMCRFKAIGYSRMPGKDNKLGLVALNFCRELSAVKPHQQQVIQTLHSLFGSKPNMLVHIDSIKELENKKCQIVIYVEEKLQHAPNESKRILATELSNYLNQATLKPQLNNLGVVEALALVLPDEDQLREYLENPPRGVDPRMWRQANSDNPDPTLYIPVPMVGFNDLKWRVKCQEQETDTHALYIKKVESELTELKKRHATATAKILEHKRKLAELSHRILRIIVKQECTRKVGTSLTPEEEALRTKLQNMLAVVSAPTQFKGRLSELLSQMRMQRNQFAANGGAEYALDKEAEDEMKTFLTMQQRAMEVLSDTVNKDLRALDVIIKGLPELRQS

[2] = biological target: T2, BASU-Nup58 (Drosophila melanogaster) (UniProt Q9VDV3); assay: as above
T2 sequence: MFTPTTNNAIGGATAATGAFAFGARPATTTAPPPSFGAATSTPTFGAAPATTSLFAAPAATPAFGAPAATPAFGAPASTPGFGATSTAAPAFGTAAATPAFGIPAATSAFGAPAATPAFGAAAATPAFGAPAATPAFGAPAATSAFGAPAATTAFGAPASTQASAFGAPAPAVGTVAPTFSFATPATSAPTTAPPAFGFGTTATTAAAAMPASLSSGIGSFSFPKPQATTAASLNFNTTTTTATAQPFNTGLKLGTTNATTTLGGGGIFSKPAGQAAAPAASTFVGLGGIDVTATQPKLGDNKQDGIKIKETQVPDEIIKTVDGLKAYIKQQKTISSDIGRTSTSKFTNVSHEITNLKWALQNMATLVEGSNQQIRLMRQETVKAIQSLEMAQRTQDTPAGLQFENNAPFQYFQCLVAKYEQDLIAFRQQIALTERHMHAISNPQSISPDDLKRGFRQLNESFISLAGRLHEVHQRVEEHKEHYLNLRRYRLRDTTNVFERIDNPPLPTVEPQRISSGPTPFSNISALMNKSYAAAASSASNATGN

Substance: Nxf1 (endogenous) (from UniProt Q9U1H9 1-672)
- binding [1]: binds weakly
- binding [2]: binds weakly
